The list shows a part of the results. Further columns of the screen follow, without active or inactive calls. The list favours compounds with an active or inconclusive main result. Words in brackets tell the shape of the fitted curve; partial curves, single points and poor fits give uncertain potencies.
Experiment: qHTS Assay for Lipid Storage Modulators in Drosophila S3 Cells;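 for cell number change: cells counted by Cell Tracker Red CMTPX staining in the red channel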
Conditions: BODIPY lipid droplet fluorescence, 18-24 h; for cell number change: measured here: cell count max response, cells fed with added oleic acid
Procedure, shortened: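 Drosophila S3 cells loaded with oleic acid (400 uM, as added) and compounds at several concentrations; lipid droplets imaged by 488-nm laser-scanning cytometry, 500–530 nm intensity and object ratio to cell channel. Percent activity normalized to 20 uM Triacsin C.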

[1] = measured here: lipid fluorescence (Fed channel) AC50, cells fed with added oleic acid
[2] = measured here: cell number channel AC50, cells fed with added oleic acid

SMILES | cell number change [%] | AC50 [1] | AC50 [2]
Nn1c(SCC(=O)NCC2CCCO2)nnc1-c1cc(Cl)ccc1Cl (stereo unspecified) | 24.5 |  | 
CCN(CCCNC(=O)C1CCN(S(=O)(=O)c2cnc[nH]2)CC1)c1cccc(C)c1 | -0.608 | 0.731 µM [falling, full curve] | 
COc1cccc(C(=O)Nc2nnc(S(=O)(=O)N3CCOCC3)s2)c1 | 5.31 | 18.4 µM [falling, single point] | 
Cc1sc(NC(=O)c2ccco2)c(C(c2ccc(F)cc2)N2CCN(C)CC2)c1C (stereo unspecified) | -14 |  | 
O=C(c1cccc(NS(=O)(=O)c2ccc(Br)cc2)c1)N1CCN(c2ccccc2O)CC1 | 175 |  | 18.4 µM [rising, single point]
O=C(COC(=O)C1CC(=O)N(Cc2ccccc2)C1)Nc1ccc2c(c1)OCO2 (stereo unspecified) | 6.39 |  | 
O=C(CCNc1ccc(Cl)c(C(F)(F)F)c1)c1ccco1 | -27.7 | 32.6 µM [rising, single point] | 
C=CCNc1cnn(-c2ccc(C)cc2)c(=O)c1Sc1ccc(C)cc1 | 2.63 |  | 
Cc1ccccc1N(Cc1nnc2n1CCCCC2)C(=O)Nc1ccccc1 | 9.13 | 6.51 µM [rising, partial curve, poor fit] | 
CCOC(=O)c1[nH]c2ccc(OC)cc2c1NC(=O)c1ccc2c(c1)OCO2 | 78.9 | 20.6 µM [rising, partial curve] | 29.1 µM [rising, single point]
COc1ccccc1C(=O)NC(CCSC)C(=O)OCC(=O)NC(=O)NCc1ccco1 (stereo unspecified) | 13.1 |  | 0.058 µM [rising, full curve, poor fit]
CCOC(=O)N1CCC(NS(=O)(=O)c2ccc3c(c2)C(C)(C)C(=O)N3C)CC1 |  | 16.4 µM [falling, partial curve, poor fit] | 
CCOC(=O)COc1cc(OCC(=O)OCC)c2c(=O)cc(-c3ccccc3)oc2c1 | -37.8 |  | 3.66 µM [falling, full curve]
CC(=O)NC1CC(C)(C)N(OC(C)=O)C(C)(C)C1 | 7.62 | 11.6 µM [rising, partial curve, poor fit] | 
CC(=O)CCc1ccc2oc(C(=O)O)c(C)c2c1 | 3.79 | 0.00731 µM [falling, full curve, poor fit] | 
Cc1noc(C)c1S(=O)(=O)N1CCC(C(=O)N2CCN(c3ccccc3Cl)CC2)CC1 |  | 29.1 µM [rising, single point] | 
Cc1cc(NC(=O)CSc2nc(=O)cc(N)n2-c2ccc(F)cc2)no1 | -5.52 | 5.8 µM [falling, partial curve, poor fit] | 
O=C(CC(c1ccccc1)c1ccccc1)Nc1ccc(O)cc1 | -40.6 | 0.651 µM [falling, full curve] | 18.4 µM [falling, partial curve]
CCOC(=O)CNC(=O)Cn1cnc2c(nnn2-c2cccc(Cl)c2)c1=O | -48.7 |  | 7.31 µM [falling, partial curve, poor fit]
O=C(NCc1ccccc1)N1CCNCC1 | 21.2 | 0.58 µM [rising, single point] | 
O=C(CN1C(=O)C2C3C=CC(C4CC34)C2C1=O)OCC(=O)c1ccccc1 (stereo unspecified) | 60.3 | 29.1 µM [rising, single point] | 18.4 µM [rising, single point]
O=C(N/N=C/c1sc(=O)[nH]c1-[n+]1ccc2ccccc2c1)c1ccccc1[O-] | 3.96 | 29.1 µM [falling, single point] | 
O=S(=O)(c1ccc(F)cc1)N1CCN(CC2CC3C=CC2C3)CC1 (stereo unspecified) | 4.96 |  | 
CCOC(=O)c1c(-c2cccc(N)c2)cn2ccccc12 |  | 6.51 µM [rising, partial curve, poor fit] | 6.51 µM [rising, partial curve, poor fit]
Cc1cc(=O)[nH]c(-n2nc(C)cc2C)n1 | 8.12 | 29.1 µM [rising, single point] | 
COc1ccc(CNC(=O)C2CCCN(C(=O)Nc3ccccc3OC)C2)cc1 (stereo unspecified) | 10.4 | 0.366 µM [rising, partial curve] | 
Cc1ccc(-c2noc(C3CCN(S(=O)(=O)c4ccc5c(c4)OCCO5)CC3)n2)o1 | -35.5 |  | 16.4 µM [falling, single point]
Cc1ccc(NC(=O)NCCCN2CCCC2=O)c(C)c1 | -8.38 | 20.6 µM [rising, single point] | 
CC(C)CCNC(=O)C1CC(=O)N(CCc2ccccc2)C1 (stereo unspecified) | 44.7 |  | 29.1 µM [rising, single point]
COc1ccc(NC(=O)CCCCCN2C(=O)c3ccccc3C2=O)c(OC)c1 | 2.36 | 29.1 µM [rising, single point] | 

3 entries from above, arranged by heavy-atom count, high to low.
SMILES | cell number change [%] | AC50 [1] | AC50 [2]
Cc1sc(NC(=O)c2ccco2)c(C(c2ccc(F)cc2)N2CCN(C)CC2)c1C (stereo unspecified) | -14 |  | 
CC(=O)NC1CC(C)(C)N(OC(C)=O)C(C)(C)C1 | 7.62 | 11.6 µM [rising, partial curve, poor fit] | 
Cc1cc(=O)[nH]c(-n2nc(C)cc2C)n1 | 8.12 | 29.1 µM [rising, single point] | 

From PubChem BioAssay AID2685 (National Center for Advancing Translational Sciences (NCATS), 2010)
